# Test results from patent US4148787A (Ferring AB, priority 1976, dated 1979).
# For some of these results: No dose or concentration is given here for some results. [ ]: non-standard residue; d: D form. The star is where a group is joined. Tos = Cc1ccc(S(=O)(=O)*)cc1; Cbz = O=C(OCc1ccccc1)*; Bn = c1ccc(C*)cc1
# Assay: Relative antidiuretic activity in relation to DDAVP
# Type: in vivo
# Details: ratio of relative activities, DDAVP = 1.00
# From the text: Thus, the strenghts in Table I are expressed as relative activity figures, data for DDAVP as a comparative compound being arbitrarily set at 1.00.
Compound,Antidiuresis / Blood pressure,Antidiuresis / Uterotonic
"NC(=O)CC[C@@H]1NC(=O)[C@H](Cc2ccccc2)NC(=O)[C@H](Cc2ccc(O)cc2)NC(=O)CCSSC[C@@H](C(=O)N2CCC[C@H]2C(=O)N[C@H](CCCN=C(N)N)C(=O)NCC(N)=O)NC(=O)[C@H](CC(N)=O)NC1=O [DDAVP, desamino-D-arginine^8 -vasopressin]",1.00,1.00
"NC(=O)CC[C@@H]1NC(=O)[C@H](Cc2ccccc2)NC(=O)[C@H](Cc2ccc(O)cc2)NC(=O)[C@@H](N)CSSC[C@@H](C(=O)N2CCC[C@H]2C(=O)N[C@@H](CCCN=C(N)N)C(=O)NCC(N)=O)NC(=O)[C@H](CC(N)=O)NC1=O [Arg-vasopressin, arginine-vasopressin]",0.00006,0.1

# Assay: general procedure: solution-phase peptide synthesis; p-nitrophenyl (ONp) active esters; azide fragment coupling (hydrazide with isoam)
# Details: not given
row,Compound,step yield
1,Cbz-C(Bn)P[dR](Tos)G-NH2,88%
2,Cbz-NC(Bn)P[dR](Tos)G-NH2,72%
3,Mep(Bzl)--Phe--Asn--Asn--Cys(Bzl)--Pro--D--Arg(Tos)--Gly--NH2,79%
4,Cbz--Asn--Asn--Cys(Bzl)--Pro--D--Arg(Tos)--Gly.NH2,83%
5,Gbz--Gln--Cys(SBzl)--Pro--D--Arg(Tos)--Gly--NH2,63%
6,Mep(SBzl)--Tyr--Phe--Gln--Gln--Cys(SBzl)--Pro--D--Arg(Tos)--Gly--NH2,53%
7,Mep(SBzl)--Tyr--Phe--Asn--Gln--Cys(SBzl)--Pro--D--Arg(Tos)--Gly--NH2,35%
8,Cbz--Asn--Gln--Cys(SBzl)--Pro--D--Arg(Tos)--Gly--NH2,74%
9,Cbz-QQC(Bn)P[dR](Tos)G-NH2,87%
